The target in this experiment is 21N13 Fab (rhesus macaque (Macaca mulatta)). As to the kind of experiment: crystal structure; both purified.

These are yes or no findings as the source states them, for the method shown. Some entries that bind do so weakly or less than the wild type.

B1: 21N13 Fab (Fab, V domains shown)
VH: QVQLQESGPGRVKPSETLSLTCAVSDDSFGSSYFYWSWIRQAPGKGLEWIGYIAYSGGVRYNPSLSSRVTISRNIHERQFYLRLTSMTAADTAVYYCARHCEDDYGYYSAAQSYGLDSWGQGIAVTVSP
VL: DIQMTQSPSSLSASVGDRVTITCRTSENVNNCLNWYQQKPGKAPKLLIYRTSTLQRGVPSRFSGTGSGTDYTLTISSLQSEDFGTYYCQHYYGTPLTFGGGTMVDIK
Take B1: the binding result is given as “binds”.
